Some of the results follow. Residues, ends and D or L forms follow the SMILES beside them. *: point of attachment. Cbz = O=C(OCc1ccccc1)*
Compound: CC(C)C[C@@H](C=O)NC(=O)[C@H](CC(C)C)NC(=O)[C@H](CC(C)C)NC(=O)OCc1ccccc1
Experiment: log2 fold change, soluble protein after heating vs DMSO (PISA); higher = thermal stabilisation; K562 cells, 10 uM, 30 min; active = over 0.2 and 3.5 SD of the protein, either way, in both replicates (recomputed)
Summary of the method: (§1)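 For each measurement, 10 μM compound was applied for 30 min to K562 cells at 2×10^6 cells/mL. Aliquots were heated for 3 min across 48°C-58°C, pooled, and extracted in PBS with 0.5% NP-40 at 4°C; the supernatant after 21,000xg for 90 min was soluble protein. This was quantified by TMTpro 16plex LC-MS/MS with channel sums equalised, and thermal stability was reported relative to control samples from duplicates, on a log2 fold-change scale.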

Chains of the proteins cited; added tags and fusions are not shown. Lines headed by an entry give the natural chain unless they say otherwise; changes in a name come on top.
UniProt Q8IYU8: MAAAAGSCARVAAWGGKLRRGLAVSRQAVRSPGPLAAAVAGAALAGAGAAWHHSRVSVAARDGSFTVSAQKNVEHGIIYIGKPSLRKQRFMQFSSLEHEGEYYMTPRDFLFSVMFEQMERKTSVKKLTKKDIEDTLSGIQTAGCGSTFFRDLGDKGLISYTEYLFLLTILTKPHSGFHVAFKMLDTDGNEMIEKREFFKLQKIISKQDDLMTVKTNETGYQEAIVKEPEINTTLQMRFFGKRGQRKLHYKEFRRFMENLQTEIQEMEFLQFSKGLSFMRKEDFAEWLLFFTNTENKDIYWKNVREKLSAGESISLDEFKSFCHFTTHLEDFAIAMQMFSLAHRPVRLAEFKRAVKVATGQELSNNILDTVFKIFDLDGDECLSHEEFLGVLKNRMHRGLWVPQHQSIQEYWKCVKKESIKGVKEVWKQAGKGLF
UniProt Q5XKP0: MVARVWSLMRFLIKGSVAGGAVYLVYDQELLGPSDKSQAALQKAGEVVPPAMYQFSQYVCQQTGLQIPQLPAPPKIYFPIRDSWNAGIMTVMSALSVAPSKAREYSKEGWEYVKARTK
UniProt P14174: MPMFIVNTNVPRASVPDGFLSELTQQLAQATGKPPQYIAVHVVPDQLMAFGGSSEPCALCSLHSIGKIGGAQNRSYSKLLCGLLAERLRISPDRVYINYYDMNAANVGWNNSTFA
UniProt O75352: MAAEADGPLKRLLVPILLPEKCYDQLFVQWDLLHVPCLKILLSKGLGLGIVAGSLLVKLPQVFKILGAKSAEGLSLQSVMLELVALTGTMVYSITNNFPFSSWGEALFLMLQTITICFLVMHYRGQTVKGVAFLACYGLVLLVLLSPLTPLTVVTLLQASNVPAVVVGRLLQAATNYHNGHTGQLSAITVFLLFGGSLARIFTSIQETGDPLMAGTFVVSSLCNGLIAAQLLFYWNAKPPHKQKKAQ
UniProt Q9H000: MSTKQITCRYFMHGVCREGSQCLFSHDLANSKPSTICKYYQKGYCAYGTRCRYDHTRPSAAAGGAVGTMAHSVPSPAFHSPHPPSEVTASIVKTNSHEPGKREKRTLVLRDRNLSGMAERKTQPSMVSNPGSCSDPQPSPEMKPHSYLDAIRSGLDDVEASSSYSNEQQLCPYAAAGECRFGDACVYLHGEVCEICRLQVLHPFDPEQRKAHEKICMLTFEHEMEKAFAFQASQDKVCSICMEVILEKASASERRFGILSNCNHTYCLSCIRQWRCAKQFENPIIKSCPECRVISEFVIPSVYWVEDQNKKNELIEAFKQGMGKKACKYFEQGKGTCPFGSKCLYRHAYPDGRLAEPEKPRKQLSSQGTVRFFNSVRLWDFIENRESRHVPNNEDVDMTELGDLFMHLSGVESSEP
UniProt Q9BRT3: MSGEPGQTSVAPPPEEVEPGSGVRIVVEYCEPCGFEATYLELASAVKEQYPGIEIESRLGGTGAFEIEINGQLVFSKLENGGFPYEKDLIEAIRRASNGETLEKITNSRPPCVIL
UniProt Q7Z3U7: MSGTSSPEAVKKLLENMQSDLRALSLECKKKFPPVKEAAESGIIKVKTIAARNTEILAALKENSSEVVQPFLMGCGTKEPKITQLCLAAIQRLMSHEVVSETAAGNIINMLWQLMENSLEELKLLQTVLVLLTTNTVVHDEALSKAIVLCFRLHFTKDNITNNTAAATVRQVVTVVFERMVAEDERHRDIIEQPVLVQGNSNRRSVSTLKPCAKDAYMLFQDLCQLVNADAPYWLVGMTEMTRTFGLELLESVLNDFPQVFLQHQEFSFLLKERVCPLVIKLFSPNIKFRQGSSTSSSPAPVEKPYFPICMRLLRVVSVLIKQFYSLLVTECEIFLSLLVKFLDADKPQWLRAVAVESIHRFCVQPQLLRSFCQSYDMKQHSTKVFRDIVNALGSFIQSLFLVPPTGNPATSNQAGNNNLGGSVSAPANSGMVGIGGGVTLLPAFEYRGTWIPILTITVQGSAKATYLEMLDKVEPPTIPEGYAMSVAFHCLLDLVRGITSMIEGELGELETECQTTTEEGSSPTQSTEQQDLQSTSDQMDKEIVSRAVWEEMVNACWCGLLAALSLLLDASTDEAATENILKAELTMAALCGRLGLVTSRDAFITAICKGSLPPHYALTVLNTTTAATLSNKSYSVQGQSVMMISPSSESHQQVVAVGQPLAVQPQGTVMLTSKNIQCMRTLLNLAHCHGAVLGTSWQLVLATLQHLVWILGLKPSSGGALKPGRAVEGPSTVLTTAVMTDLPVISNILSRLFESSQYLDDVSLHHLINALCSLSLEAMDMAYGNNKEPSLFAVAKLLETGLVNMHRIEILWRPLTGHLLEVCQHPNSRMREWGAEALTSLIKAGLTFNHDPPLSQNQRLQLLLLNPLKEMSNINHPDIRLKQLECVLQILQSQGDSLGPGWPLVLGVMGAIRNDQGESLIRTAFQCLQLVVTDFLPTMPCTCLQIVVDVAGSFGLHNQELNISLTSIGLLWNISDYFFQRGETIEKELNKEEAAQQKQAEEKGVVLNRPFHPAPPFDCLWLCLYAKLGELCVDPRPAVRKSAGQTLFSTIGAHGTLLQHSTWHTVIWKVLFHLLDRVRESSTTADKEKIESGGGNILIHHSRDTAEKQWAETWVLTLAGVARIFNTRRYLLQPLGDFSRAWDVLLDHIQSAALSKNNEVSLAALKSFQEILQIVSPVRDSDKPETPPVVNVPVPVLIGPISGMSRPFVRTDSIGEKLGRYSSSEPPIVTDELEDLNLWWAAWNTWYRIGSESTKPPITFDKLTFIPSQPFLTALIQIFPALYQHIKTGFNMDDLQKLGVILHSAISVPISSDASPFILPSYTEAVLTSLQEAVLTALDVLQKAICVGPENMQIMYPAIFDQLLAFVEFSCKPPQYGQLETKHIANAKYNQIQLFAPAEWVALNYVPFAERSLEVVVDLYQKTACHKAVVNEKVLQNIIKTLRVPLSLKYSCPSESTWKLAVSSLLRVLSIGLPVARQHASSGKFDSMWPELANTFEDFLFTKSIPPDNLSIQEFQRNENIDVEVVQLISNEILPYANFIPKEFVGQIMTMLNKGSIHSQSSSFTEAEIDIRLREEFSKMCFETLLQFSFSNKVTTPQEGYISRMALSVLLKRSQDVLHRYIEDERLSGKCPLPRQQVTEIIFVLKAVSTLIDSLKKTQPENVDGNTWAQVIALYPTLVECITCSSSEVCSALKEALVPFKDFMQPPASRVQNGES
UniProt Q8WV92, whole entry, looked up: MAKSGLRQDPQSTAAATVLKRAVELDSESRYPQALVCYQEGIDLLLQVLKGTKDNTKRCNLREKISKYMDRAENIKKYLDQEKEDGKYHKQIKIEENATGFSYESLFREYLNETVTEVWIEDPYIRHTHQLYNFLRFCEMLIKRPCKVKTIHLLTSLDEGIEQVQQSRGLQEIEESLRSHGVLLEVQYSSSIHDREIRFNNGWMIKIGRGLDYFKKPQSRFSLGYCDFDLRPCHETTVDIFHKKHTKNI
UniProt Q9NQG6: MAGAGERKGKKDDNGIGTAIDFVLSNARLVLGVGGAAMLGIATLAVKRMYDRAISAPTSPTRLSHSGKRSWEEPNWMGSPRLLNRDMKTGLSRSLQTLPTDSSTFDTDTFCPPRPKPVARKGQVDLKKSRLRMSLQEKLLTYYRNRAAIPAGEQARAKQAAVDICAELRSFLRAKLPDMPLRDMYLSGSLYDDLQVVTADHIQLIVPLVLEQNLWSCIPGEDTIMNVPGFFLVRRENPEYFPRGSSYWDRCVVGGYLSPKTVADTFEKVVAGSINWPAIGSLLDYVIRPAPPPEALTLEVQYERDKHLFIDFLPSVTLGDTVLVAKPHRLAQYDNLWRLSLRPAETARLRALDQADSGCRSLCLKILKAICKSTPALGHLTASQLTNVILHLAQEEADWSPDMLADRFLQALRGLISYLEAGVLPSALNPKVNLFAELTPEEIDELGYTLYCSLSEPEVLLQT
UniProt Q9BWT6: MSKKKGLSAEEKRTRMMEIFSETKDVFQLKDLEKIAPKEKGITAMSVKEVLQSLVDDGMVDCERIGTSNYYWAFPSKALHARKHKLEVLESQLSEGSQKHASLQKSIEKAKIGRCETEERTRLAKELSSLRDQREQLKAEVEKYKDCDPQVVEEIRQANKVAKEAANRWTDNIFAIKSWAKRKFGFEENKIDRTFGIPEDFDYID
UniProt Q9BUB5: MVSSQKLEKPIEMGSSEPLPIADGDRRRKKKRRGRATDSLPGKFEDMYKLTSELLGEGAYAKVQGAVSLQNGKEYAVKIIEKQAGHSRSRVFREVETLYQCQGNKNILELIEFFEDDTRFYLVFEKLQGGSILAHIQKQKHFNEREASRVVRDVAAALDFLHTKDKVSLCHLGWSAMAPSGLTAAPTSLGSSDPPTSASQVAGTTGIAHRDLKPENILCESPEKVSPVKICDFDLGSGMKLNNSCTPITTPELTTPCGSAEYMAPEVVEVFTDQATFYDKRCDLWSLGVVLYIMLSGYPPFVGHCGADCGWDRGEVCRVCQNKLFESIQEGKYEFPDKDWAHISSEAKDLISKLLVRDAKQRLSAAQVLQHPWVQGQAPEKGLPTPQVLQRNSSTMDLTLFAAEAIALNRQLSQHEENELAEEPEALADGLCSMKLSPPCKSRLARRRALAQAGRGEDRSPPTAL
UniProt Q7RTP6, whole entry, looked up: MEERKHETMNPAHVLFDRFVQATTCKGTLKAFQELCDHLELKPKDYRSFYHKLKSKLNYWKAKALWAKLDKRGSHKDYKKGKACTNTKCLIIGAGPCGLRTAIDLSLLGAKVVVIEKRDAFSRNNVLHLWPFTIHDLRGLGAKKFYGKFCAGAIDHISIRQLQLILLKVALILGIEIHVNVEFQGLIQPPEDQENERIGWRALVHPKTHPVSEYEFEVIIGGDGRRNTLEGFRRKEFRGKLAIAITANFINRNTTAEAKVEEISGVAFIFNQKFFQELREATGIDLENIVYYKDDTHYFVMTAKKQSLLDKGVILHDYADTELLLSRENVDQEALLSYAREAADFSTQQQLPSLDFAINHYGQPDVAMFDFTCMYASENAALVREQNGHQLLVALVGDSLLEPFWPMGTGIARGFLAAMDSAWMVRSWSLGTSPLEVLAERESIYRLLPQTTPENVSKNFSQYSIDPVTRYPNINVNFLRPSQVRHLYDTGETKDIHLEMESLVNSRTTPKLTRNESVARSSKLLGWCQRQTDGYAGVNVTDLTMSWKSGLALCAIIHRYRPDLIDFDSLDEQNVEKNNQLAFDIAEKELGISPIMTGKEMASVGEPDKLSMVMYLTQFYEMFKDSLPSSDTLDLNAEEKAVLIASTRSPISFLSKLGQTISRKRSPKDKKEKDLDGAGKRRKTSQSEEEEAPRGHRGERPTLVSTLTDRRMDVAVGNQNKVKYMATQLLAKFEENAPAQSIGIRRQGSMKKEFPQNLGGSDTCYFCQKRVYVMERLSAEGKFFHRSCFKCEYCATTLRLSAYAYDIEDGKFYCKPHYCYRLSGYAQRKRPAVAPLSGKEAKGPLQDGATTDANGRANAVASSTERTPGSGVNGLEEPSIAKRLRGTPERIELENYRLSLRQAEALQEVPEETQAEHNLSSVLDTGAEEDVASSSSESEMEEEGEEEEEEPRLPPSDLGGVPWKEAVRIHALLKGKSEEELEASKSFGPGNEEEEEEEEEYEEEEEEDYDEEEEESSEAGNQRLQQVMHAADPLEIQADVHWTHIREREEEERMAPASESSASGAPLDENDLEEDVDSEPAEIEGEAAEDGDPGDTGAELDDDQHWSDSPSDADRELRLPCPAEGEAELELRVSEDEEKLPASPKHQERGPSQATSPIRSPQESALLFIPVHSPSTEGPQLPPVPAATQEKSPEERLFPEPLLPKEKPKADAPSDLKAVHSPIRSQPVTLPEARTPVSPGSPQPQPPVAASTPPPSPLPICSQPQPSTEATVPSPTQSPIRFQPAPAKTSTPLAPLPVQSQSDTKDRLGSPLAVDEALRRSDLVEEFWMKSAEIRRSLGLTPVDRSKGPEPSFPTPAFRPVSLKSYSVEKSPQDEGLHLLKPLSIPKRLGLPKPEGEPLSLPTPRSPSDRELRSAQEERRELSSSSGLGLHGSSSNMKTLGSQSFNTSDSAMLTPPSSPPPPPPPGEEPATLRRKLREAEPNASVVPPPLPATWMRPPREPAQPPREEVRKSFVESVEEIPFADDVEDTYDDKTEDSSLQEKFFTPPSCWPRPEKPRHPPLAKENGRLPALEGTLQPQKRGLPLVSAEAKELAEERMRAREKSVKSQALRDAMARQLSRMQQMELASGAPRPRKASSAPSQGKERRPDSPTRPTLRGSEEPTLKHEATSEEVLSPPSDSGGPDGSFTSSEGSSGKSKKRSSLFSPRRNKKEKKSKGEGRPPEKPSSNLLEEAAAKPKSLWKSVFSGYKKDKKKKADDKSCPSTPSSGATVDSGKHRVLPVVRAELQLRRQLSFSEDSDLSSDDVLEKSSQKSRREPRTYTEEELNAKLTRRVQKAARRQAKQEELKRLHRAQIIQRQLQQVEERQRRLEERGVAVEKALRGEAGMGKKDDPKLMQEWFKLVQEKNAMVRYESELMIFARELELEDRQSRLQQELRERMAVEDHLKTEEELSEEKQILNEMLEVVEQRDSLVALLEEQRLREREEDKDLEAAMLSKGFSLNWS

log2 fold change, inactive:
MPP1 (UniProt Q00013) 0.023, MICU2 (UniProt Q8IYU8) 0.128, MICOS13 (UniProt Q5XKP0) 0.006, MIER1 isoform 12 (UniProt Q8N108) 0.03, MPHOSPH10 (UniProt O00566) 0.053, MINK1 (UniProt Q8N4C8) 0.044, MIF (UniProt P14174) 0.04, MPDU1 (UniProt O75352) -0.154, MORC3 (UniProt Q14149) 0.002, MKRN2 (UniProt Q9H000) 0.089, MRPL46 (UniProt Q9H2W6) 0.064, MIEN1 (UniProt Q9BRT3) -0.036, MRPL47 (UniProt Q9HD33) 0.071, MON2 isoform 5 (UniProt Q7Z3U7) 0.004, MRPL34 (UniProt Q9BQ48) 0.102, MRPL55 isoform 2 (UniProt Q7Z7F7) 0.138, MLX (UniProt Q9UH92) 0.14, MRPL39 (UniProt Q9NYK5) 0.066, MRPL50 (UniProt Q8N5N7) -0.203, MITD1 (UniProt Q8WV92) -0.002, MIEF1 (UniProt Q9NQG6) -0.034, MICU1 isoform 3 (UniProt Q9BPX6) 0.08, MON1B (UniProt Q7L1V2) 0, MPV17 (UniProt P39210) -0.097, MIS12 (UniProt Q9H081) 0.06, MND1 (UniProt Q9BWT6) 0.173, MIS18A (UniProt Q9NYP9) -0.015, MNAT1 (UniProt P51948) -0.028, MORF4L2 (UniProt Q15014) 0.271, MIEF1 (UniProt L0R8F8) -0.053, MKNK1 (UniProt Q9BUB5) 0.168, MOV10 (UniProt Q9HCE1) 0.033, MMS19 isoform 8 (UniProt Q96T76) 0.006, MPRIP isoform 2 (UniProt Q6WCQ1) 0.083, MICAL3 (UniProt Q7RTP6) 0.053

Compound: CC(C)N(C[C@H]1O[C@@H](n2cnc3c(N)ncnc32)[C@H](O)[C@@H]1O)[C@H]1C[C@@H](CCc2nc3cc(C(C)(C)C)ccc3[nH]2)C1 [pinometostat]
Experiment: as above
Summary of the method: as §1

log2 fold change, inactive:
MPP1 (UniProt Q00013) 0.011, MICU2 (UniProt Q8IYU8) 0.211, MICOS13 (UniProt Q5XKP0) -0.023, MIER1 isoform 12 (UniProt Q8N108) -0.013, MPHOSPH10 (UniProt O00566) 0.113, MOCS3 (UniProt O95396) -0.064, MINK1 (UniProt Q8N4C8) 0.049, MIF (UniProt P14174) -0.043, MPDU1 (UniProt O75352) -0.237, MORC3 (UniProt Q14149) -0.026, MKRN2 (UniProt Q9H000) 0.094, MRPL46 (UniProt Q9H2W6) 0.03, MIEN1 (UniProt Q9BRT3) 0.019, MRPL47 (UniProt Q9HD33) 0.181, MON2 isoform 5 (UniProt Q7Z3U7) 0.048, MRPL34 (UniProt Q9BQ48) 0.196, MRPL55 isoform 2 (UniProt Q7Z7F7) 0.153, MLX (UniProt Q9UH92) 0.016, MRPL39 (UniProt Q9NYK5) 0.108, MRPL50 (UniProt Q8N5N7) -0.01, MITD1 (UniProt Q8WV92) 0.082, MIEF1 (UniProt Q9NQG6) -0.038, MICU1 isoform 3 (UniProt Q9BPX6) 0.076, MON1B (UniProt Q7L1V2) -0.039, MIS12 (UniProt Q9H081) 0.006, MND1 (UniProt Q9BWT6) 0.076, MIS18A (UniProt Q9NYP9) -0.037, MLST8 (UniProt Q9BVC4) -0.093, MNAT1 (UniProt P51948) 0.022, MORF4L2 (UniProt Q15014) 0.092, MIEF1 (UniProt L0R8F8) -0.005, MKNK1 (UniProt Q9BUB5) -0.019, MOV10 (UniProt Q9HCE1) 0.163, MMS19 isoform 8 (UniProt Q96T76) 0.084, MPRIP isoform 2 (UniProt Q6WCQ1) 0.168, MICAL3 (UniProt Q7RTP6) -0.051

— the supplement of paper PMC10849652
